Test results: the supplement of paper PMC6331611
“And” between values parts separate entries of the source, which are not always exact repeats. Identical values can stand only once. ± gives the standard deviation of the averaged measurements. Over roughly 1,600 compounds, “normalized growth (OD600, IQM-normalized) in LPM” has its median near 1; the lowest 2% begin near 0.014. This is one part of the list.

System: Salmonella enterica serovar Typhimurium SL1344
Assay: normalized growth (OD600, IQM-normalized) in LPM (fraction of plate interquartile mean); higher = more bacterial growth (less inhibition)
Conditions: LPM pH 5.8; 10 µM; 16 h

Row | SMILES | normalized growth
1 | CC(=O)OCC1=C(C(=O)O)N2C(=O)[C@@H](NC(=O)CSc3ccncc3)[C@H]2SC1 | 0.957 ± 0.058
2 | O=C1OC2(c3ccc(O)cc3Oc3cc(O)ccc32)c2ccccc21 | 0.99 ± 0.014
3 | CN(C)[C@@H]1C(O)=C(C(N)=O)C(=O)[C@@]2(O)C(O)=C3C(=O)c4c(O)ccc(Cl)c4[C@@](C)(O)[C@H]3C[C@@H]12 | 0.0113 ± 0.00051
4 | CC(C)[C@H](NC(=O)[C@H](CC(=O)O)NC(=O)[C@H](CCCCN)NC(=O)[C@@H](N)CCCN=C(N)N)C(=O)N[C@@H](Cc1ccc(O)cc1)C(=O)O | 0.991 ± 0.011
5 | C[C@]12CC[C@@H]3c4ccc(O)cc4CC[C@H]3[C@@H]1CCC2=O | 1.19 ± 0.15
6 | CCOC(=O)C1=C[C@]2(CC)CCCN3CCc4c(n1c1ccccc41)[C@@H]32 | 1.06 ± 0.037
7 | O=NN(CCCl)C(=O)NC1CCCCC1 | 0.914 ± 0.045
8 | COc1ccccc1O | 0.951 ± 0.037
9 | Cc1cccc(CN2CCN(C(c3ccccc3)c3ccc(Cl)cc3)CC2)c1 (centres undefined) | 1.04 ± 0.068
10 | COc1cnc(NS(=O)(=O)c2ccc(N)cc2)nc1 | 1.21 ± 0.028
11 | O=C(O)CCC(=O)Nc1ccc(S(=O)(=O)Nc2nccs2)cc1 | 0.958 ± 0.029
12 | COc1ccc(-c2cc(=O)c3c(O)cc(O[C@@H]4O[C@H](CO[C@@H]5O[C@@H](C)[C@H](O)[C@@H](O)[C@H]5O)[C@@H](O)[C@H](O)[C@H]4O)cc3o2)cc1O | 1.06 ± 0.032
13 | COc1ccc(C(=O)c2ccc(C)cc2)c(O)c1 | 1.01 ± 0.024
14 | NC(=O)NC(=O)Cc1ccccc1 | 0.876 ± 0.017
15 | CC1(C)[C@H]2CC[C@]1(CS(=O)(=O)O)C(=O)C2=Cc1ccc(C=C2C(=O)[C@@]3(CS(=O)(=O)O)CC[C@@H]2C3(C)C)cc1 | 0.989 ± 0.073
16 | CN1[C@@H](CC(=O)c2ccccc2)CCC[C@H]1C[C@H](O)c1ccccc1 | 1.13 ± 0.05
17 | c1ccc2[nH]c(-c3cscn3)nc2c1 | 1 ± 0.025
18 | OC[C@@H](O)[C@@H](O[C@@H]1O[C@H](CO)[C@H](O)[C@H](O)[C@H]1O)[C@H](O)[C@@H](O)CO | 0.98 and 0.904
19 | CCN1CC(CCN2CCOCC2)C(c2ccccc2)(c2ccccc2)C1=O (centres undefined) | 1.05 ± 0.087
20 | CC(=O)Nc1ccc(CC(=O)O)cc1 | 1.03 ± 0.045
21 | Cc1nc2n(c(=O)c1CCN1CCC(c3noc4cc(F)ccc34)CC1)CCCC2 | 1.11 ± 0.026
22 | CNCCC(Oc1ccc(C(F)(F)F)cc1)c1ccccc1 (centres undefined) | 0.857 ± 0.024
23 | CC(=O)OCC(=O)[C@@]12N=C(C)O[C@@H]1C[C@H]1[C@@H]3CCC4=CC(=O)C=C[C@]4(C)[C@H]3[C@@H](O)C[C@@]12C | 1.06 ± 0.023
24 | CC(C)(C)NC[C@H](O)c1ccc(O)c(CO)c1 | 0.993 ± 0.055
25 | CC(C)Nc1ncccn1 | 1.05 ± 0.019

Row | SMILES | normalized growth
26 | O=S(=O)(O)CCS | 0.949 ± 0.029
27 | CCn1cc(C(=O)O)c(=O)c2cnc(N3CCCC3)nc21 | 1.05 ± 0.052
28 | CCCCCCCCCCCCC[N+](C)(C)Cc1ccccc1 | 1.01 ± 0.03
29 | CC(=O)[C@H]1CC[C@H]2[C@@H]3C[C@H](C)C4=CC(=O)CC[C@]4(C)[C@H]3[C@@H](O)C[C@]12C | 1.91 ± 0.14
30 | CCOC(=O)OC(C)OC1=C(C(=O)Nc2ccccn2)N(C)S(=O)(=O)c2ccccc21 (centres undefined) | 1.04 ± 0.05
31 | O=C(O)c1cc(-c2ccc(F)cc2F)ccc1O | 0.966 ± 0.045
32 | CCCCNC(=O)NS(=O)(=O)c1ccc(C)cc1 | 1.12 ± 0.058
33 | C[C@]12C=CC(=O)C=C1CC[C@@H]1[C@@H]2[C@@H](O)C[C@@]2(C)[C@H]1CC[C@]2(O)C(=O)COC(=O)CCC(=O)O | 0.977 ± 0.058
34 | COC(=O)[C@@H]1[C@H]2C[C@H]3c4[nH]c5ccccc5c4CCN3C[C@@H]2CC[C@@H]1O | 0.956 ± 0.048
35 | CC1(C)NC(=O)N(c2ccc([N+](=O)[O-])c(C(F)(F)F)c2)C1=O | 0.979 ± 0.02
36 | CCCCCCc1ccc(O)cc1O | 1.02 ± 0.053
37 | CC(=O)N[C@@H]([C@@H](O)[C@H](O)[C@H](O)CO)[C@@H](O)CC(=O)C(=O)O | 1 ± 0.065
38 | CCC1=C(C)CN(C(=O)NCCc2ccc(S(=O)(=O)NC(=O)N[C@H]3CC[C@H](C)CC3)cc2)C1=O | 0.926 ± 0.053
39 | CCCCOc1cc(C(=O)NCCN(CC)CC)c2ccccc2n1 | 1.09 ± 0.055
40 | CC[C@H]1OC(=O)[C@H](C)C(=O)[C@H](C)[C@@H](O[C@@H]2O[C@H](C)C[C@H](N(C)C)[C@H]2O)[C@](C)(OC)C[C@@H](C)C(=O)[C@H](C)[C@H]2N(CCCCn3cnc(-c4cccnc4)c3)C(=O)O[C@]12C | 0.668 ± 0.046
41 | N#C[C@@H]1C[C@@H]2C[C@@H]2N1C(=O)[C@@H](N)C12CC3CC(CC(O)(C3)C1)C2 | 0.919 ± 0.091
42 | CCS(=O)(=O)CCn1c([N+](=O)[O-])cnc1C | 0.994 ± 0.039
43 | O=C1CCc2cc(OCCCCc3nnnn3C3CCCCC3)ccc2N1 | 1.06 ± 0.023
44 | N=C(N)NC(=O)c1nc(Cl)c(N)nc1N | 0.9797 ± 0.0063
45 | COc1ccc(Cc2cnc(N)nc2N)cc1OC | 0.546 ± 0.071
46 | CCCCC1=NC2(CCCC2)C(=O)N1Cc1ccc(-c2ccccc2-c2nnn[nH]2)cc1 | 0.907 ± 0.035
47 | CC[C@H]1OC(=O)[C@H](C)[C@@H](O[C@H]2C[C@@](C)(OC)[C@@H](O)[C@H](C)O2)[C@H](C)[C@@H](O[C@@H]2O[C@H](C)C[C@H](N(C)C)[C@H]2O)[C@](C)(OC)C[C@@H](C)C(=O)[C@H](C)[C@@H](O)[C@]1(C)O | 0.648 ± 0.059
48 | CCCCOC(=O)c1ccc(N)cc1 | 1.08 ± 0.031
49 | O=C(Nc1ccc(C(=O)O)c(O)c1)c1ccccc1 | 1.12 ± 0.053
50 | CC(C)COCC(CN(Cc1ccccc1)c1ccccc1)N1CCCC1 (centres undefined) | 1.04 ± 0.025

Row | SMILES | normalized growth
51 | C=NC(C(=O)NC1C(=O)N2C1SC(C)(C)C2C(=O)O)c1ccccc1 (centres undefined) | 0.913 ± 0.058
52 | CCOC(=O)[C@H](CCc1ccccc1)N[C@@H](C)C(=O)N1[C@H](C(=O)O)C[C@@H]2CCC[C@@H]21 | 1.01 ± 0.038
53 | NC(=O)c1ncn([C@@H]2O[C@H](CO)[C@@H](O)[C@H]2O)n1 | 1.03 ± 0.024
54 | CNS(=O)(=O)Cc1ccc2[nH]cc(CCN(C)C)c2c1 | 1.06 ± 0.032
55 | O=C(CCCl)NCc1ccccc1 | 1.06 ± 0.049
56 | CN[C@H](CC(C)C)C(=O)N[C@H]1C(=O)N[C@@H](CC(N)=O)C(=O)N[C@H]2C(=O)N[C@H]3C(=O)N[C@H](C(=O)N[C@H](C(=O)O)c4cc(O)cc(O)c4-c4cc3ccc4O)[C@H](O)c3ccc(c(Cl)c3)Oc3cc2cc(c3O[C@@H]2O[C@H](CO)[C@@H](O)[C@H](O)[C@H]2O[C@H]2C[C@](C)(N)[C@H](O)[C@H](C)O2)Oc2ccc(cc2Cl)[C@H]1O | 1.05 ± 0.029
57 | NS(=O)(=O)c1cc2c(cc1Cl)N=CNS2(=O)=O | 1.12 ± 0.07
58 | S=C1SCN(Cc2ccccc2)CN1Cc1ccccc1 | 1.11 ± 0.061
59 | Cc1cc(C2CCCCC2)n(O)c(=O)c1 | 0.183 ± 0.014
60 | NS(=O)(=O)c1cc(C(=O)O)c(NCc2ccco2)cc1Cl | 1.11 ± 0.052
61 | O=C(O)c1cc(=O)c2ccccc2o1 | 0.962 ± 0.041
62 | Cc1c(C(N)=O)cc([N+](=O)[O-])cc1[N+](=O)[O-] | 0.996 ± 0.039
63 | C=C[C@H]1CN2CC[C@H]1C[C@@H]2[C@@H](O)c1ccnc2ccc(OC)cc12 | 1.04 ± 0.044
64 | N=C(N)N | 0.993 ± 0.033
65 | C[C@]12C=CC(=O)C=C1CC[C@@H]1[C@@H]2[C@@H](O)C[C@@]2(C)[C@H]1CC[C@]2(O)C(=O)COP(=O)(O)O | 1.01 ± 0.02
66 | C[C@]12CC[C@H]3C(=CCc4cc(O)ccc43)[C@@H]1CCC2=O | 1.25 ± 0.034
67 | Cc1ncc([N+](=O)[O-])n1CC(O)CCl (centres undefined) | 0.987 ± 0.086
68 | Cc1cccc(C)c1NC(=O)C1CCCCN1C (centres undefined) | 0.9 ± 0.18
69 | COc1ccc(C2C(=O)c3ccccc3C2=O)cc1 | 0.974 ± 0.036
70 | CN(C)c1ccc2nc3ccc(=[N+](C)C)cc-3sc2c1 | 0.837 ± 0.081
71 | O=C(Nc1ccccc1)c1ccccc1O | 1.05 ± 0.042
72 | Cc1[nH]c(=O)c(C#N)cc1-c1ccncc1 | 1.07 ± 0.043
73 | Cc1ccnc2c1NC(=O)c1cccnc1N2C1CC1 | 1.04 ± 0.045
74 | CN(C)CCC=C1c2ccccc2CCc2ccccc21 | 1.03 ± 0.026
75 | C#C[C@]1(O)CC[C@H]2[C@@H]3CCc4cc(OC5CCCC5)ccc4[C@H]3CC[C@@]21C | 0.954 ± 0.1

Row | SMILES | normalized growth
76 | Oc1ccc(Cl)c2c1CCC2 | 1.1 ± 0.084
77 | CS(=O)(=O)c1ccc(C2=C(c3ccccc3)C(=O)OC2)cc1 | 1.07 ± 0.11
78 | COc1cc(Cc2cnc(N)nc2N)cc(OC)c1OC | 0.059 ± 0.024
79 | CCN(CC)CCOC(=O)C(c1ccccc1)C1CCCCC1 (centres undefined) | 1.02 ± 0.02
80 | COCC1=C(C(=O)OC(C)OC(=O)OC(C)C)N2C(=O)[C@@H](NC(=O)/C(=N\OC)c3csc(N)n3)[C@H]2SC1 (some centres undefined) | 1.034 ± 0.0056
81 | CCCCC(CC)CN1CN(CC(CC)CCCC)CC(C)(N)C1 (centres undefined) | 0.779 ± 0.031
82 | COc1cc2c(cc1OC)C(=O)C(CC1CCN(Cc3ccccc3)CC1)C2 (centres undefined) | 0.865 ± 0.043
83 | CC(=O)c1ccc2c(c1)N(CCCN1CCC(CCO)CC1)c1ccccc1S2 | 0.997 ± 0.026
84 | CO[C@@]1(NC(=O)Cc2cccs2)C(=O)N2C(C(=O)O)=C(COC(N)=O)CS[C@@H]21 | 0.417 ± 0.0075
85 | O=C(CCCN1CCC(O)(c2ccc(Br)cc2)CC1)c1ccc(F)cc1 | 1.04 ± 0.039
86 | CNCC[C@H](Oc1cccc2ccccc12)c1cccs1 | 1.05 ± 0.046
87 | CCCN(CCC)C(=O)C(CCC(=O)O)NC(=O)c1ccccc1 (centres undefined) | 1.09 ± 0.025
88 | COc1ccccc1N1CCN(CC(O)COc2cccc3ccccc23)CC1 (centres undefined) | 1.2 ± 0.045
89 | CN1CCC(=C2c3ccccc3CC(=O)c3sccc32)CC1 | 1.02 ± 0.035
90 | CCN1C(=O)NC(c2ccccc2)C1=O (centres undefined) | 1.08 ± 0.019
91 | N#CC(c1ccc(Cl)cc1)c1c(Cl)cc(-n2ncc(=O)[nH]c2=O)cc1Cl (centres undefined) | 0.927 ± 0.048
92 | COc1cc(OC)c(C(=O)CCCN2CCCC2)c(OC)c1 | 1 ± 0.046
93 | CCC(=O)c1ccc(O)cc1 | 1.12 ± 0.045
94 | Cn1ccnc1S | 1.14 ± 0.06
95 | Oc1ccc(Cl)c2cccnc12 | 0.847 ± 0.037
96 | Nc1c(Br)cc(Br)cc1CN[C@H]1CC[C@H](O)CC1 | 0.864 ± 0.04
97 | CC(C)(Sc1cc(C(C)(C)C)c(O)c(C(C)(C)C)c1)Sc1cc(C(C)(C)C)c(O)c(C(C)(C)C)c1 | 0.903 ± 0.028
98 | CN1CCCN=C1COC(=O)C(O)(c1ccccc1)C1CCCCC1 (centres undefined) | 1.23 ± 0.026
99 | CC(C)(Oc1ccc(Cl)cc1)C(=O)O | 1.04 ± 0.032
